Data reported in publication PMC10630842, “Impact of dietary plant flavonoids on 7,8‐dihydroxyflavone transepithelial transport in human intestinal Caco‐2 cells” (Food Science & Nutrition, 2023).

test system: Caco‐2 cell monolayers; test: TEER of cell monolayers before and after transport experiments (monolayer integrity); type: cell-based, human; conditions: 7,8-DHF 10 μmol/L alone or with named inhibitor (flavonoid equimolar, verapamil 100 μmol/L)

**Q.** Which results are given for `O=c1cc(-c2ccccc2)oc2c(O)c(O)ccc12` [7,8‐DHF, 7,8‐Dihydroxyflavone]?
**A.** TEER, AP→BL, After transport: 353.5±7.66 Ω•cm^2; TEER, AP→BL, Before transport: 368.8±13.0 Ω•cm^2; TEER, BL→AP, After transport: 333.3±5.52 Ω•cm^2; TEER, BL→AP, Before transport: 349.2±3.75 Ω•cm^2

**Q.** For `O=c1cc(-c2ccccc2)oc2cc(O)c(O)c(O)c12` [Baicalein, baicalein], which “TEER, AP→BL, After transport” value is on record?
**A.** Its value is 340.9±27.3 Ω•cm^2.

**Q.** And the “TEER, AP→BL, Before transport” value?
**A.** The value was 405.9±12.9 Ω•cm^2.

**Q.** And the “TEER, BL→AP, After transport” value?
**A.** The value was 316.3±7.54 Ω•cm^2.

**Q.** And the “TEER, BL→AP, Before transport” value?
**A.** The value was 355.9±26.1 Ω•cm^2.

**Q.** Which “TEER, AP→BL, After transport” value does the source give for `COc1ccc(-c2coc3cc(O)cc(O)c3c2=O)cc1` [Biochanin A, biochanin A] here?
**A.** The value was 315.3±10.3 Ω•cm^2.

**Q.** What about the “TEER, AP→BL, Before transport” value of the same compound?
**A.** The value was 331.9±8.62 Ω•cm^2.

**Q.** What about the “TEER, BL→AP, After transport” value of the same compound?
**A.** The value was 312.5±15.4 Ω•cm^2.

**Q.** What about the “TEER, BL→AP, Before transport” value of the same compound?
**A.** Its value is 339.5±16.9 Ω•cm^2.

**Q.** What does the source list for `O=C(O[C@@H]1Cc2c(O)cc(O)cc2O[C@@H]1c1cc(O)c(O)c(O)c1)c1cc(O)c(O)c(O)c1` [EGCG, epigallocatechin gallate]?
**A.** TEER, AP→BL, After transport: 346.6±11.7 Ω•cm^2; TEER, AP→BL, Before transport: 372.9±19.6 Ω•cm^2; TEER, BL→AP, After transport: 337.2±20.5 Ω•cm^2; TEER, BL→AP, Before transport: 351.9±21.9 Ω•cm^2

**Q.** Which results are given for `O=c1c(O)c(-c2ccc(O)c(O)c2)oc2cc(O)ccc12` [Fisetin, fisetin]?
**A.** TEER, AP→BL, After transport: 310.1±8.31 Ω•cm^2; TEER, AP→BL, Before transport: 339.9±22.9 Ω•cm^2; TEER, BL→AP, After transport: 311.9±7.54 Ω•cm^2; TEER, BL→AP, Before transport: 323.3±8.90 Ω•cm^2

**Q.** With `O=c1c(-c2ccc(O)cc2)coc2cc(O)cc(O)c12` [Genistein, genistein] as the compound, how does the “TEER, AP→BL, After transport” value read?
**A.** Its value is 329.5±15.3 Ω•cm^2.

**Q.** What about the “TEER, AP→BL, Before transport” value of the same compound?
**A.** Its value is 351.8±19.6 Ω•cm^2.

**Q.** And the “TEER, BL→AP, After transport” value?
**A.** Its value is 319.6±14.3 Ω•cm^2.

**Q.** What about the “TEER, BL→AP, Before transport” value of the same compound?
**A.** The value was 337.3±18.7 Ω•cm^2.

**Q.** `COc1ccc([C@@H]2CC(=O)c3c(O)cc(O)cc3O2)cc1O` [Hesperetin, hesperetin] was tested. Which “TEER, AP→BL, After transport” value did it give?
**A.** Its value is 326.2±24.7 Ω•cm^2.

**Q.** What about the “TEER, AP→BL, Before transport” value of the same compound?
**A.** Its value is 339.9±21.0 Ω•cm^2.

**Q.** What about the “TEER, BL→AP, After transport” value of the same compound?
**A.** Its value is 312.9±3.31 Ω•cm^2.

**Q.** What about the “TEER, BL→AP, Before transport” value of the same compound?
**A.** The value was 336.9±10.9 Ω•cm^2.

**Q.** For `O=c1cc(-c2ccc(O)c(O)c2)oc2cc(O)c([C@@H]3O[C@H](CO)[C@@H](O)[C@H](O)[C@H]3O)c(O)c12` [Isoorientin, isoorientin], which “TEER, AP→BL, After transport” value is on record?
**A.** Its value is 322.0±16.6 Ω•cm^2.

**Q.** What about the “TEER, AP→BL, Before transport” value of the same compound?
**A.** The value was 349.3±21.9 Ω•cm^2.

**Q.** And the “TEER, BL→AP, After transport” value?
**A.** Its value is 321.2±16.4 Ω•cm^2.

**Q.** And the “TEER, BL→AP, Before transport” value?
**A.** Its value is 333.8±26.6 Ω•cm^2.

**Q.** Which results are given for `O=c1cc(-c2ccc(O)cc2)oc2cc(O)c([C@@H]3O[C@H](CO)[C@@H](O)[C@H](O)[C@H]3O)c(O)c12` [Isovitexin, isovitexin]?
**A.** TEER, AP→BL, After transport: 311.4±7.84 Ω•cm^2; TEER, AP→BL, Before transport: 321.3±8.20 Ω•cm^2; TEER, BL→AP, After transport: 374.2±18.7 Ω•cm^2; TEER, BL→AP, Before transport: 340.0±26.9 Ω•cm^2

**Q.** What does the source list for `O=c1c(O)c(-c2ccc(O)cc2)oc2cc(O)cc(O)c12` [Kaempferol, kaempferol]?
**A.** TEER, AP→BL, After transport: 312.5±13.3 Ω•cm^2; TEER, AP→BL, Before transport: 337.6±36.7 Ω•cm^2; TEER, BL→AP, After transport: 368.2±11.8 Ω•cm^2; TEER, BL→AP, Before transport: 387.9±18.4 Ω•cm^2

**Q.** How did the “TEER, AP→BL, After transport” value turn out when `O=c1c(O)c(-c2cc(O)c(O)c(O)c2)oc2cc(O)cc(O)c12` [Myricetin, myricetin] was run?
**A.** Its value is 321.9±10.7 Ω•cm^2.

**Q.** What about the “TEER, AP→BL, Before transport” value of the same compound?
**A.** The value was 331.1±10.7 Ω•cm^2.

**Q.** And the “TEER, BL→AP, After transport” value?
**A.** The value was 324.3±12.3 Ω•cm^2.

**Q.** What about the “TEER, BL→AP, Before transport” value of the same compound?
**A.** Its value is 384.0±17.3 Ω•cm^2.

**Q.** How did the “TEER, AP→BL, After transport” value turn out when `O=C1C[C@@H](c2ccc(O)cc2)Oc2cc(O)cc(O)c21` [Naringenin, naringenin] was run?
**A.** Its value is 336.9±18.6 Ω•cm^2.

**Q.** What about the “TEER, AP→BL, Before transport” value of the same compound?
**A.** Its value is 363.3±15.6 Ω•cm^2.

**Q.** And the “TEER, BL→AP, After transport” value?
**A.** Its value is 325.7±16.3 Ω•cm^2.

**Q.** What about the “TEER, BL→AP, Before transport” value of the same compound?
**A.** Its value is 367.6±16.0 Ω•cm^2.

**Q.** What does the source list for `O=c1cc(-c2ccc(O)c(O)c2)oc2c([C@@H]3O[C@H](CO)[C@@H](O)[C@H](O)[C@H]3O)c(O)cc(O)c12` [Orientin]?
**A.** TEER, AP→BL, After transport: 346.2±31.0 Ω•cm^2; TEER, AP→BL, Before transport: 400.93±24.3 Ω•cm^2; TEER, BL→AP, After transport: 323.2±17.5 Ω•cm^2; TEER, BL→AP, Before transport: 352.2±27.8 Ω•cm^2

**Q.** Which “TEER, AP→BL, After transport” value does the source give for `O=c1c(O)c(-c2ccc(O)c(O)c2)oc2cc(O)cc(O)c12` [Quercetin, quercetin] here?
**A.** Its value is 322.0±14.9 Ω•cm^2.

**Q.** What about the “TEER, AP→BL, Before transport” value of the same compound?
**A.** The value was 350.8±22.1 Ω•cm^2.

**Q.** And the “TEER, BL→AP, After transport” value?
**A.** The value was 366.0±31.6 Ω•cm^2.

**Q.** What about the “TEER, BL→AP, Before transport” value of the same compound?
**A.** Its value is 409.9±28.0 Ω•cm^2.

**Q.** How did the “TEER, AP→BL, After transport” value turn out when `O=c1cc(-c2ccc(O)cc2)oc2c([C@@H]3O[C@H](CO)[C@@H](O)[C@H](O)[C@H]3O)c(O)cc(O)c12` [Vitexin, vitexin] was run?
**A.** Its value is 317.6±17.8 Ω•cm^2.

**Q.** What about the “TEER, AP→BL, Before transport” value of the same compound?
**A.** Its value is 334.9±22.1 Ω•cm^2.

**Q.** What about the “TEER, BL→AP, After transport” value of the same compound?
**A.** Its value is 318.9±13.6 Ω•cm^2.

**Q.** What about the “TEER, BL→AP, Before transport” value of the same compound?
**A.** Its value is 410.7±23.2 Ω•cm^2.

same assay, conditions: 7,8-DHF+ flavonoid, molar ratios 1:2

**Q.** With `O=c1c(O)c(-c2ccc(O)cc2)oc2cc(O)cc(O)c12` [Kaempferol, kaempferol] as the compound, how does the “TEER, AP→BL, After transport” value read?
**A.** The value was 320.9±16.5 Ω•cm^2.

**Q.** And the “TEER, AP→BL, Before transport” value?
**A.** The value was 338.6±21.4 Ω•cm^2.

**Q.** And the “TEER, BL→AP, After transport” value?
**A.** The value was 326.9±19.1 Ω•cm^2.

**Q.** And the “TEER, BL→AP, Before transport” value?
**A.** Its value is 351.2±24.4 Ω•cm^2.

**Q.** `O=c1c(O)c(-c2ccc(O)c(O)c2)oc2cc(O)cc(O)c12` [Quercetin, quercetin] was tested. Which “TEER, AP→BL, After transport” value did it give?
**A.** Its value is 316.6±12.2 Ω•cm^2.

**Q.** What about the “TEER, AP→BL, Before transport” value of the same compound?
**A.** Its value is 335.2±26.4 Ω•cm^2.

**Q.** What about the “TEER, BL→AP, After transport” value of the same compound?
**A.** The value was 326.5±29.4 Ω•cm^2.

**Q.** What about the “TEER, BL→AP, Before transport” value of the same compound?
**A.** The value was 446.6±39.3 Ω•cm^2.

same assay, conditions: 7,8-DHF+ flavonoid, molar ratios 1:4

**Q.** How did the “TEER, AP→BL, After transport” value turn out when `O=c1c(O)c(-c2ccc(O)cc2)oc2cc(O)cc(O)c12` [Kaempferol, kaempferol] was run?
**A.** Its value is 355.2±22.8 Ω•cm^2.

**Q.** And the “TEER, AP→BL, Before transport” value?
**A.** The value was 400.83±26.5 Ω•cm^2.

**Q.** And the “TEER, BL→AP, After transport” value?
**A.** The value was 326.9±13.0 Ω•cm^2.

**Q.** And the “TEER, BL→AP, Before transport” value?
**A.** Its value is 358.2±19.3 Ω•cm^2.

**Q.** Which results are given for `O=c1c(O)c(-c2ccc(O)c(O)c2)oc2cc(O)cc(O)c12` [Quercetin, quercetin]?
**A.** TEER, AP→BL, After transport: 337.2±20.4 Ω•cm^2; TEER, AP→BL, Before transport: 350.2±27.5 Ω•cm^2; TEER, BL→AP, After transport: 330.9±17.9 Ω•cm^2; TEER, BL→AP, Before transport: 443.6±38.1 Ω•cm^2

same assay, conditions: 7,8-DHF+ flavonoid, molar ratios 2:1

**Q.** `O=c1c(O)c(-c2ccc(O)cc2)oc2cc(O)cc(O)c12` [Kaempferol, kaempferol] was tested. Which “TEER, AP→BL, After transport” value did it give?
**A.** The value was 333.3±25.9 Ω•cm^2.

**Q.** What about the “TEER, AP→BL, Before transport” value of the same compound?
**A.** Its value is 353.2±29.9 Ω•cm^2.

**Q.** And the “TEER, BL→AP, After transport” value?
**A.** The value was 325.3±16.8 Ω•cm^2.

**Q.** And the “TEER, BL→AP, Before transport” value?
**A.** Its value is 370.8±12.3 Ω•cm^2.

**Q.** How did the “TEER, AP→BL, After transport” value turn out when `O=c1c(O)c(-c2ccc(O)c(O)c2)oc2cc(O)cc(O)c12` [Quercetin, quercetin] was run?
**A.** Its value is 319.9±25.7 Ω•cm^2.

**Q.** What about the “TEER, AP→BL, Before transport” value of the same compound?
**A.** Its value is 338.3±27.7 Ω•cm^2.

**Q.** And the “TEER, BL→AP, After transport” value?
**A.** The value was 348.9±17.0 Ω•cm^2.

**Q.** And the “TEER, BL→AP, Before transport” value?
**A.** Its value is 392.3±26.4 Ω•cm^2.
